We go through two substances from paper doi:10.1101/2024.01.30.577955.

By UniProt entry, the sequences of proteins in these tests, tags left out.
UniProt Q96SY0: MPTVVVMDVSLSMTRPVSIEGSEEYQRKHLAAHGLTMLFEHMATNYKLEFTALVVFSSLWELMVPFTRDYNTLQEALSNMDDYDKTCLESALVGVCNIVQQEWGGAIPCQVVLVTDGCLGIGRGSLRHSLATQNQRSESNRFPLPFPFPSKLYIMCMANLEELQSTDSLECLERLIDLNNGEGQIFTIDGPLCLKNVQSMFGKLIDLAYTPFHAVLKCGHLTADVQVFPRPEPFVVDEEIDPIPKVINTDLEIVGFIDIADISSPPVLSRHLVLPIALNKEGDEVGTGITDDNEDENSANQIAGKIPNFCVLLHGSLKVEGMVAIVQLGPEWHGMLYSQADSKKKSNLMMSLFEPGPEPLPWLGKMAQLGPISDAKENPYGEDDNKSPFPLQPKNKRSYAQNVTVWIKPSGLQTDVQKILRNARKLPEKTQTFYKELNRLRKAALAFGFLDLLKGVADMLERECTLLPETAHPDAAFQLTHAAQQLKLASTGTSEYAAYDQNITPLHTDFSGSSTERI
UniProt Q9NVR2: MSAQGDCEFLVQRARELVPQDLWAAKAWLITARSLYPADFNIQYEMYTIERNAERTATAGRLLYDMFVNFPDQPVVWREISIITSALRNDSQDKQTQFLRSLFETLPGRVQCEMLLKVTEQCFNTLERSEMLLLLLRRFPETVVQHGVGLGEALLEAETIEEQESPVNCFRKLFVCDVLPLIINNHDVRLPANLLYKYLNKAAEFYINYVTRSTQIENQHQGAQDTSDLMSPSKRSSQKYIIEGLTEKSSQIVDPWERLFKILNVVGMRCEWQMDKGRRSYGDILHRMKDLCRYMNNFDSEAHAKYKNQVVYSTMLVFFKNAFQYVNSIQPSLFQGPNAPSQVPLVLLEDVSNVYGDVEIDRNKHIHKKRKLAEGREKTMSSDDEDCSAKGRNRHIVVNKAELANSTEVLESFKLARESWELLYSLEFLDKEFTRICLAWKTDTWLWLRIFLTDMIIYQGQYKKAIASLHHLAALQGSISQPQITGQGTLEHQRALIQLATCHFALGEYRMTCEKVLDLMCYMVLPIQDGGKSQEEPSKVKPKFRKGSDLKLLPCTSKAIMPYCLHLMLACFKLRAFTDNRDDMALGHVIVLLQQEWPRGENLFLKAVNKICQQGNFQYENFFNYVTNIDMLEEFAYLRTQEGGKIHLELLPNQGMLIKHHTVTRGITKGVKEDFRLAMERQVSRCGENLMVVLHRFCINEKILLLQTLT
UniProt Q9NVM9: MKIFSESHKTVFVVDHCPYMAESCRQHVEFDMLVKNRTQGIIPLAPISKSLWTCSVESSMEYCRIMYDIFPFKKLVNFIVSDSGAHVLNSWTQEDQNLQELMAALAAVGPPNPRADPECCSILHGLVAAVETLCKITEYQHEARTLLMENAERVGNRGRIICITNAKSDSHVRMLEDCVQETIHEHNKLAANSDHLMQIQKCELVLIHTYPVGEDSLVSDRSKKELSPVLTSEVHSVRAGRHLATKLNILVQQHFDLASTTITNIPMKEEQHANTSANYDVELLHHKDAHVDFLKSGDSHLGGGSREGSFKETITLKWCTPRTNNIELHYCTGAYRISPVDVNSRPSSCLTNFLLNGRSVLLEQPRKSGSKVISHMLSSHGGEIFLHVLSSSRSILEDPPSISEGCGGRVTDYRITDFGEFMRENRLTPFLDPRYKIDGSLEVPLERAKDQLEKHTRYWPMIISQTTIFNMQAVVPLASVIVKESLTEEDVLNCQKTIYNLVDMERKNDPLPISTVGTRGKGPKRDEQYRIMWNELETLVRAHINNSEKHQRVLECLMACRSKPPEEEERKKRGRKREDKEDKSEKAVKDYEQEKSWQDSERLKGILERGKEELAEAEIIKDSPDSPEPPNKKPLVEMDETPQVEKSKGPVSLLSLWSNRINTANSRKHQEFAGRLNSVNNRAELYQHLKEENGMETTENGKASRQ
UniProt Q96N11: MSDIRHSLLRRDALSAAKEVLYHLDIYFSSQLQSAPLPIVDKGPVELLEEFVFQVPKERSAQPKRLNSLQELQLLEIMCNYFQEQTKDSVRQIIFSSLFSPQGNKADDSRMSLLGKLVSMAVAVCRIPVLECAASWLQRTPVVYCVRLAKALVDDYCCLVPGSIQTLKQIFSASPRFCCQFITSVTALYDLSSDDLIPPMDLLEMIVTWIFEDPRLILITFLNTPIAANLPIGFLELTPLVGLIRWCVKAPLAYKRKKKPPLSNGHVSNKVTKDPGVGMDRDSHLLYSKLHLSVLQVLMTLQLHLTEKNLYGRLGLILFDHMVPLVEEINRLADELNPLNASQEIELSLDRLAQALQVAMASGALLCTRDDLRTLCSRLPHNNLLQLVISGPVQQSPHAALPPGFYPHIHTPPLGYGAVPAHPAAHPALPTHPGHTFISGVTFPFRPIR

Where two headings read alike, the source gives them in different places. Results are given in words; binding and its absence hold for the method and conditions named. Some entries that bind do so weakly or less than the wild type.

What all share (assay): cryo-EM structure
Test [1] addresses INTS14 (UniProt Q96SY0).
Test [2] addresses INTS10 (UniProt Q9NVR2).
The target of test [3] is INTS10 (UniProt Q9NVR2). The source holds these as a separate data set.

For INTS13 (from UniProt Q9NVM9 1-706), in test [1], the binding entry is “binds”.

For INTS15 (from UniProt Q96N11 1-449), the binding entry in test [2] and in test [3] was “binds” throughout.
